This passage reports binding results from paper doi:10.1101/2021.11.15.468671.

Amino acid sequences for entries named in this document (tags omitted).
UniProt P0AEZ3: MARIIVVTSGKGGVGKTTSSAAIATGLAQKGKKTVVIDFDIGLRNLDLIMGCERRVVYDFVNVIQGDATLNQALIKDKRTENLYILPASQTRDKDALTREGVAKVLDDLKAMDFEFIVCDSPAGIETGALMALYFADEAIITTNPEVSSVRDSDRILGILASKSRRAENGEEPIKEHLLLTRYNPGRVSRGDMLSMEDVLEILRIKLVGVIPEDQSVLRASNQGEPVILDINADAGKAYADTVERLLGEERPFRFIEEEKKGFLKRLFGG
UniProt P0A9A6: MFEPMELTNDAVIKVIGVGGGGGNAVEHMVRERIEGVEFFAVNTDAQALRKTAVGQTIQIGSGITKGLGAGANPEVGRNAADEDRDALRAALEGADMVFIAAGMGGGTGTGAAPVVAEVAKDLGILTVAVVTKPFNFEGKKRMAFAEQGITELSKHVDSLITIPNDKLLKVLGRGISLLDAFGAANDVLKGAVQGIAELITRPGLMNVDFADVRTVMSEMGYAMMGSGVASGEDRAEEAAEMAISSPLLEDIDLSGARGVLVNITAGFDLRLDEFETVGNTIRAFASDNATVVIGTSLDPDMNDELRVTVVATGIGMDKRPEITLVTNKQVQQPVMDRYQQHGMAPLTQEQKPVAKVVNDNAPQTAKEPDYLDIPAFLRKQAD

No constants are given. Whether binding was seen depends on the method and setting. Some binding calls cover weakened binding; strength is not graded here.

Holding throughout (test): membrane recruitment on a supported lipid bilayer
Test [1] addresses MinE (cell-free expressed from the minD-minE bi-cistronic DNA template) (E. coli) (UniProt P0A734).
The target in test [2] is T1, FtsA (cell-free expressed from the ftsA-minD-minE tri-cistron DNA template) (E. coli) (UniProt P0ABH0).
T1 sequence: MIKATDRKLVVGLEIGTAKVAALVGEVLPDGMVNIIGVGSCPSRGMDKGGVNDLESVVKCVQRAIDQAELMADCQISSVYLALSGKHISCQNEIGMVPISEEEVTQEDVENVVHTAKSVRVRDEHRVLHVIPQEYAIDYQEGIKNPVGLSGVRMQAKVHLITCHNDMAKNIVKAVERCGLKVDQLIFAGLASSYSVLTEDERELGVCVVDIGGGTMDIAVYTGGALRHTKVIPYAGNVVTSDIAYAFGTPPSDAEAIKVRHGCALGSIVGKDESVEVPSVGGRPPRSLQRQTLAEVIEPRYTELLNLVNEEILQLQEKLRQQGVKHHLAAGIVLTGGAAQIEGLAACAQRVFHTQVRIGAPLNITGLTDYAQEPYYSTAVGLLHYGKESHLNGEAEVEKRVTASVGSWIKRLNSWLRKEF

Test [3] concerns the target MinD (cell-free expressed from the minD-minE bi-cistronic DNA template) (E. coli) (UniProt P0AEZ3).

“FtsZ-A647 (FtsZ conjugated to the AlexaFluor647 fluorophore) (from UniProt P0A9A6 1-383)”: the binding result in test [1] is “no binding (tested: 3 μM FtsZ-A647)”; in test [2], “binds”; in test [3], “no binding (tested: 3 μM FtsZ-A647)”.
